Test results from US20240301071A1.
These are yes or no findings as the source states them, for the method shown. For part of these data: A result given as binding can be weak or reduced; the word gives no strength. One block for each binder: values may come before it.

Key:
[1] = molecular target: CynoSIRPB1 (XP_005568598) (cynomolgus); assay: ELISA, plate coated with SIRP protein
[2] = molecular target: cynoSIRPA XPO15313153.1 (cynomolgus); assay: ELISA, plate coated with tagged SIRPA at 1 ug/mL

binding [1]: no binding
B1: anti-SIRPA antibody 9C2 (antibody, V domains shown)
VH: EFQLQQSGAELVKPGASVKISCKASGYSLTGYNMNWVKQSRGKSLEWIGNINPHYGSSTYNQNFKDKATLTVDKSSSAAYMQFNSLTSEDSAVYYCAREGYDGVFDYWGQGTTLTVSS
VL: QIVLSQSPAILSASPGEKVTMTCRASSSVSYMHWYQQKPGSSPKPWIYVTSNLASGVPTRFSGSGSGTSYSLTISRVEAEDAATYYCQQWSSNPRTFGGGTKLEIK

binding [2]: binds
binding [1]: no binding
B2: mouse anti-SIRPA antibody m3F9 (antibody, mouse IgG1, V domains shown)
VH: EVKLVESGGGLVKPGGSLKLSCAASGFTFSSYAMSWVRQTPEKRLEWVATISDYGGSYTYYPDSVKGRFTISRDNAKYTLYLQMSSLRSEDTALYYCARPPYDDYYGGFAYWGQGTLVTVSA
VL: DIVLTQSPASLAVSLGQRATISCRASKSVSSSGYSYMHWYQQKPGQPPKLLIYLASNLESGVPARFSGSGSGTDFTLNIHPVEEEDAATYYCQHNRELPCTFGGGTKLEIK
